The results in this text go back to publication PMC8910673.

Test [1] concerns the target NDR4 (LCI fusion) (Arabidopsis thaliana). Kind of test: split reporter; firefly luciferase complementation imaging (LCI) in N. benthamiana leaves, 2-4 days after infiltration; 1 mM D-luciferin, CCD imaging.
In test [2] the target is NDR2 (LCI fusion) (Arabidopsis thaliana). Described as above.
Test [3] deals with NDR5 (LCI fusion) (Arabidopsis thaliana). Described as above.
Test [4] has as its target NDR4 (yeast two-hybrid fusion) (Arabidopsis thaliana). The test can be described thus: two-hybrid; Gal4 system (Clontech), yeast strain AH109; growth on SD/-Trp-Leu-His, 3-7 days at 28 °C.
For test [5], the target named is NDR5 (yeast two-hybrid fusion) (Arabidopsis thaliana). The test is described as above.
Test [6] deals with NDR2 (yeast two-hybrid fusion) (Arabidopsis thaliana). The test is described as above.

Results are given in words; binding and its absence hold for the method and conditions named. For part of these data: In cells and extracts the contact can be indirect. For part of these data: A result given as binding can be weak or reduced; the word gives no strength. Where a sequence is shown, tags or fusion partners need not be part of it.

B1: CLuc-MAP3Kε1 (protein, UniProt Q9LJD8 1-1368)
chain: MARQMTSSQFHKSKTLDNKYMLGDEIGKGAYGRVYKGLDLENGDFVAIKQVSLENIVQEDLNTIMQEIDLLKNLNHKNIVKYLGSSKTKTHLHIILEYVENGSLANIIKPNKFGPFPESLVAVYIAQVLEGLVYLHEQGVIHRDIKGANILTTKEGLVKLADFGVATKLNEADVNTHSVVGTPYWMAPEVIEMSGVCAASDIWSVGCTVIELLTCVPPYYDLQPMPALFRIVQDDNPPIPDSLSPDITDFLRQCFKKDSRQRPDAKTLLSHPWIRNSRRALQSSLRHSGTIKYMKEATASSEKDDEGSQDAAESLSGENVGISKTDSKSKLPLVGVSSFRSEKDQSTPSDLGEEGTDNSEDDIMSDQVPTLSIHEKSSDAKGTPQDVSDFHGKSERGETPENLVTETSEARKNTSAIKHVGKELSIPVDQTSHSFGRKGEERGIRKAVKTPSSVSGNELARFSDPPGDASLHDLFHPLDKVSEGKPNEASTSMPTSNVNQGDSPVADGGKNDLATKLRATIAQKQMEGETGHSNDGGDLFRLMMGVLKDDVIDIDGLVFDEKVPAENLFPLQAVEFSRLVSSLRPDESEDAIVSSCQKLVAMFRQRPEQKVVFVTQHGFLPLMDLLDIPKSRVICAVLQLINEIIKDNTDFQENACLVGLIPVVMSFAGPERDRSREIRKEAAYFLQQLCQSSPLTLQMFIACRGIPVLVGFLEADYAKYREMVHLAIDGMWQVFKLKRSTPRNDFCRIAAKNGILLRLINTLYSLNEATRLASISGGLDGQAPRVRSGQLDPNNPIFGQNETSSLSMIDQPDVLKTRHGGGEEPSHASTSNSQRSDVHQPDALHPDGDKPRVSSVAPDASTSGTEDVRQQHRISLSANRTSTDKLQKLAEGASNGFPVTQTEQVRPLLSLLDKEPPSRHYSGQLDYVKHITGIERHESRLPLLHGSNEKKNNGDLDFLMAEFAEVSGRGKENGSLDTTTRYPSKTMTKKVLAIEGVASTSGIASQTASGVLSGSGVLNARPGSATSSGLLAHMVSTLSADVAREYLEKVADLLLEFARADTTVKSYMCSQSLLSRLFQMFNRVEPPILLKILECTNHLSTDPNCLENLQRADAIKHLIPNLELKDGHLVYQIHHEVLSALFNLCKINKRRQEQAAENGIIPHLMLFIMSDSPLKQYALPLLCDMAHASRNSREQLRAHGGLDVYLSLLDDEYWSVIALDSIAVCLAQDNDNRKVEQALLKQDAIQKLVDFFQSCPERHFVHILEPFLKIITKSYRINKTLAVNGLTPLLISRLDHQDAIARLNLLKLIKAVYEHHPRPKQLIVENDLPQKLQNLIEERRDGQRSGGQVLVKQMATSLLKALHINTIL
Regarding B1, the binding result in test [1] was “binds”; in test [2], “binds”; in test [3], “no binding”.

B2: MAP3Kε1 (pGADT7, AD fusion) (protein, UniProt Q9LJD8 1-1368)
chain: B1 chain
For B2, the binding entry in test [4], in test [5] and in test [6] was “no binding” each time.

B3: CLuc-MAP3Kε2 (protein, UniProt Q9SFB6 1-1367)
chain: MARQMTSSQFHKSKTLDNKYMLGDEIGKGAYGRVYIGLDLENGDFVAIKQVSLENIGQEDLNTIMQEIDLLKNLNHKNIVKYLGSLKTKTHLHIILEYVENGSLANIIKPNKFGPFPESLVTVYIAQVLEGLVYLHEQGVIHRDIKGANILTTKEGLVKLADFGVATKLNEADFNTHSVVGTPYWMAPEVIELSGVCAASDIWSVGCTIIELLTCVPPYYDLQPMPALYRIVQDDTPPIPDSLSPDITDFLRLCFKKDSRQRPDAKTLLSHPWIRNSRRALRSSLRHSGTIRYMKETDSSSEKDAEGSQEVVESVSAEKVEVTKTNSKSKLPVIGGASFRSEKDQSSPSDLGEEGTDSEDDINSDQGPTLSMHDKSSRQSGTCSISSDAKGTSQDVLENHEKYDRDEIPGNLETEASEGRRNTLATKLVGKEYSIQSSHSFSQKGEDGLRKAVKTPSSFGGNELTRFSDPPGDASLHDLFHPLDKVPEGKTNEASTSTPTANVNQGDSPVADGGKNDLATKLRARIAQKQMEGETGHSQDGGDLFRLMMGVLKDDVLNIDDLVFDEKVPPENLFPLQAVEFSRLVSSLRPDESEDAIVTSSLKLVAMFRQRPGQKAVFVTQNGFLPLMDLLDIPKSRVICAVLQLINEIVKDNTDFLENACLVGLIPLVMSFAGFERDRSREIRKEAAYFLQQLCQSSPLTLQMFISCRGIPVLVGFLEADYAKHREMVHLAIDGMWQVFKLKKSTSRNDFCRIAAKNGILLRLVNTLYSLSEATRLASISGDALILDGQTPRARSGQLDPNNPIFSQRETSPSVIDHPDGLKTRNGGGEEPSHALTSNSQSSDVHQPDALHPDGDRPRLSSVVADATEDVIQQHRISLSANRTSTDKLQKLAEGASNGFPVTQPDQVRPLLSLLEKEPPSRKISGQLDYVKHIAGIERHESRLPLLYASDEKKTNGDLEFIMAEFAEVSGRGKENGNLDTAPRYSSKTMTKKVMAIERVASTCGIASQTASGVLSGSGVLNARPGSTTSSGLLAHALSADVSMDYLEKVADLLLEFARAETTVKSYMCSQSLLSRLFQMFNRVEPPILLKILECTNHLSTDPNCLENLQRADAIKQLIPNLELKEGPLVYQIHHEVLSALFNLCKINKRRQEQAAENGIIPHLMLFVMSDSPLKQYALPLLCDMAHASRNSREQLRAHGGLDVYLSLLDDEYWSVIALDSIAVCLAQDVDQKVEQAFLKKDAIQKLVNFFQNCPERHFVHILEPFLKIITKSSSINKTLALNGLTPLLIARLDHQDAIARLNLLKLIKAVYEKHPKPKQLIVENDLPQKLQNLIEERRDGQRSGGQVLVKQMATSLLKALHINTIL
In the case of B3, the figures for the binding entry in test [1], in test [2] and in test [3] were “binds”, “binds” and “no binding”, respectively.

B4: MAP3Kε2 (pGADT7, AD fusion) (protein, UniProt Q9SFB6 1-1367)
chain: B3 chain
In the case of B4, the binding result in test [4], in test [5] and in test [6] was “no binding” throughout.
